According to patent publication US9309315B2, “Therapy with CD4 binding peptides and radiation” (GENMAB A/S, priority 2005, dated 2016):
Results are given in words; binding and its absence hold for the method and conditions named. Binding seen in cells or lysates may run through a third protein. Some results given as binding are weak or reduced against the parent protein; the word gives no strength. Sequences can lack the tags named with a protein.

Biological target: T1, Dok-1 (UniProt Q99704)
T1 sequence (tyrosine-phosphorylated after zanolimumab exposure; sites not given, looked up): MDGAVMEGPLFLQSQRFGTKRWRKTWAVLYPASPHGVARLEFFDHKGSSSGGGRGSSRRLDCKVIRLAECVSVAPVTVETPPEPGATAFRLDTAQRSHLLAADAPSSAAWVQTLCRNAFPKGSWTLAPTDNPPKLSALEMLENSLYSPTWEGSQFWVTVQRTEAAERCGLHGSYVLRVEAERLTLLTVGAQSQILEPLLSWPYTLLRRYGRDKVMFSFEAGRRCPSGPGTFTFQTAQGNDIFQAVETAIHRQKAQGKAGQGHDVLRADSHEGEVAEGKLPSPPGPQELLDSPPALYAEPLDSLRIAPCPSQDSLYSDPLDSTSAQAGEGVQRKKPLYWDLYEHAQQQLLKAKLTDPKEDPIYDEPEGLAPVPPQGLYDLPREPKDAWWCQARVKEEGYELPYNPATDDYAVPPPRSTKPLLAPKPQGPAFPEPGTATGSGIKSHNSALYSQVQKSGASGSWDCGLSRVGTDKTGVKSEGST
Assay: pull-down of SH2-binding proteins from CD4+ T cell lysates on glutathione agarose beads, Western blot for Dok-1

B1: SH2C-RasGAP-GST (protein, UniProt P20936 351-441, looked up, not shown: a dimerising Fc or GST)
chain: WFHGKISKQEAYNLLMTVGQVCSFLVRPSDNTPGDYSLYFRTNENIQRFKICPTPNNQFMMGGRYYNSIGDIIDHYRKEQIVEGYYLKEPV
For B1, the binding was “binds”.
